# Source: PubChem BioAssay AID2685 (National Center for Advancing Translational Sciences (NCATS), 2010)
# Some of the results follow. The main result of the screen is listed elsewhere. These columns were measured beside it and carry no call. Most of these compounds were active or inconclusive in the main read-out, so they are no random draw. Potencies come from curve fits of mixed quality, noted in brackets.
# Assay: qHTS Assay for Lipid Storage Modulators in Drosophila S3 Cells;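 on cell number change: cells counted by Cell Tracker Red CMTPX staining in the red channel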
# Conditions: BODIPY lipid droplet fluorescence, 18-24 h; for cell number change: measured here: cell count max response, cells fed with added oleic acid
# Summary of the method: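 Drosophila S3 cells loaded with oleic acid (400 uM, as added) and compounds at several concentrations; lipid droplets imaged by 488-nm laser-scanning cytometry, 500–530 nm intensity and object ratio to cell channel. Percent activity normalized to 20 uM Triacsin C.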
# [1] = measured here: lipid fluorescence (Fed channel) AC50, cells fed with added oleic acid
# [2] = measured here: cell number channel AC50, cells fed with added oleic acid
SMILES,AC50 [1],cell number change [%],AC50 [2]
CCOc1ccc(NC(=O)C2CCN(S(=O)(=O)c3ccc4c(c3)NC(=O)C(C)S4)CC2)cc1 (stereo not given),"1.3 µM [falling, full curve]",–,–
O=c1cn[nH]c2ccccc12,"0.13 µM [falling, full curve, poor fit]",-7.36,–
CC(C)(C)NC(=O)CSc1nc2scc(-c3ccccc3)c2c(=O)[nH]1,"2.59 µM [falling, single point]",29.8,–
Cc1ccccc1OCC(O)CN(Cc1ccccc1O)C1CCCCC1 (stereo not given),–,-7.38,–
OC(CN1CCN(c2ccccc2)CC1)Cn1c2ccccc2c2ccccc21 (stereo not given),"18.4 µM [falling, single point]",-27.4,–
COc1cc(/C=C/c2cc[n+](C)cc2)ccc1OCC(=O)Nc1ccccc1,"29.1 µM [rising, single point]",26.9,–
CSC1=NCCN1C(=O)Cc1ccc(Cl)cc1,–,21,–
Cc1ccc(NC(=S)Nn2cnnc2)cc1,"0.58 µM [falling, full curve]",-33.1,"0.731 µM [falling, full curve]"
CC(=O)C1=C(C)Nc2ncnn2C1c1ccccc1 (stereo not given),–,7.67,–
Cc1cc(OCC(=O)Nc2ccncc2)ccc1Br,"25.9 µM [falling, single point]",-15.8,–
Cc1ccc(C(=O)NNC(=O)Cn2ccc(C(F)(F)F)n2)o1,"29.1 µM [falling, single point]",-48.8,"18.4 µM [falling, single point]"
COc1cc(C(=O)N2CCN(C(=O)c3cccc4ccccc34)CC2)cc(OC)c1OC,"0.103 µM [rising, partial curve, poor fit]",6.41,–
CCNC(=O)n1cc(-n2cncn2)c(-c2ccc(Cl)cc2)n1,–,-15.8,–
CC1(C)C(=O)OC(c2ccco2)C(C)(C)C1=O (stereo not given),"3.66 µM [falling, full curve]",-41.5,"2.31 µM [falling, partial curve, poor fit]"
CC(=O)c1ccc(N2CCN(CC(=O)N(C3CC3)C3CCS(=O)(=O)C3)CC2)c(F)c1 (stereo not given),"16.4 µM [rising, single point]",20.8,–
COc1ccc(-n2c(=S)[nH]c3cc(C(=O)NCCCN4CCCC4=O)ccc3c2=O)cc1OC,–,9.98,–
O=C(CCN1CCN(c2ccccc2F)CC1)Nc1ccc(F)cc1,"29.1 µM [rising, single point]",14.2,–
COc1cccc(CN2CC(O)=C(c3nc(-c4ccc(Cl)cc4)cs3)C2=N)c1,–,-31.5,"2.06 µM [falling, full curve]"
COCCn1c(=S)[nH]c2cc(C(=O)N3CCCC(C)C3)ccc2c1=O (stereo not given),"29.1 µM [falling, single point]",-33.7,"18.4 µM [falling, single point]"
O=C(CN1C(=O)COc2ccccc21)N(Cc1cccnc1)Cc1ccccc1F,"20.6 µM [rising, partial curve]",290,"18.4 µM [rising, partial curve]"
COc1cc(OC)cc(C(=O)Nc2cccc3cccnc23)c1,"6.51 µM [rising, single point]",13.5,–
O=C(CSc1nnc(-c2ccccc2)n1Cc1ccccc1)N1CCOCC1,"3.26 µM [falling, full curve]",18.4,–

SMILES,AC50 [1],cell number change [%],AC50 [2]
O=C(c1ccc(C(F)(F)F)cc1)C1CCCN(C(=O)CCc2ccncc2)C1 (stereo not given),–,16.5,–
COCCN(C(=O)CCC(=O)Nc1nccs1)C(C(=O)NC(C)(C)C)c1ccc(C)cc1 (stereo not given),"5.17 µM [rising, single point]",–,–
COc1ccc(CC(=O)NCC2CCCN(Cc3cc(OC)cc(OC)c3)C2)cc1 (stereo not given),–,21.3,–
O=C(CSc1nnc(-c2ccco2)n1-c1ccccc1)NCCc1ccccc1,"8.2 µM [rising, partial curve, poor fit]",-0.684,–
CN(CCCC(=O)NCc1ccccc1)S(=O)(=O)c1ccc([N+](=O)[O-])cc1,–,1.76,–
S=C(NCCc1ccccc1)NCc1ccccc1Cl,"18.4 µM [falling, partial curve]",-36.1,"0.259 µM [falling, full curve, poor fit]"
CCOc1ccc(/C=C2/Sc3ccc(C(=O)N4CCN(C(=O)c5ccco5)CC4)cc3N(C)C2=O)cc1OC,–,–,"0.82 µM [rising, single point]"
CCc1c(C)sc(NC(=O)/C=C/C(=O)O)c1C(N)=O,–,-48.2,"29.1 µM [falling, single point]"
Cc1cccc(C)c1NC(=O)/C(=C/c1ccco1)c1ccccc1,"0.146 µM [rising, full curve, poor fit]",133,"25.9 µM [rising, single point]"
CCOc1ccccc1NC(=O)COC(=O)CC(NC(N)=O)c1ccc(Cl)cc1 (stereo not given),"6.51 µM [falling, single point]",–,"6.51 µM [falling, single point]"
CC(C(=O)N(C)c1ccccc1)N1CCN(C(=O)c2ccccc2)CC1 (stereo not given),"0.58 µM [rising, single point]",-19.8,–
O=C(C1CCCCC1)N1CCN(S(=O)(=O)c2ccc(Cl)cc2)CC1,"6.51 µM [rising, single point]",1.7,–
COC(=O)c1c(NC(=O)CSc2nnnn2-c2ccccc2)sc2c1CCC(C)C2 (stereo not given),"32.6 µM [falling, single point]",-22.4,–
CC1/C(=N/O)C(CN(C)C)C2CC1C2(C)C (stereo not given),–,-12.4,–
COc1cc(C)c(NC(=O)C(=S)N2CCCC2)cc1C,–,3.78,–
O=C(O)c1cccc(S(=O)(=O)Nc2cccc(S(=O)(=O)Nc3ccc(Br)cc3)c2)c1,–,-0.771,–
Cn1c(CNc2cccc(Cl)c2)nnc1SCC(=O)OC1CCCCC1,–,19.8,"0.206 µM [falling, full curve]"
COc1ccc(-c2noc(-c3cccc(OC)c3OC)n2)cc1OC,"0.00461 µM [falling, full curve, poor fit]",-2.63,–
CCOC(=O)c1cc(CC)sc1NC(=O)C1CC1,"16.4 µM [rising, partial curve]",-15.2,–
O=C1CN(C(=O)COC(=O)CNS(=O)(=O)c2ccccc2)c2ccccc2N1,"8.2 µM [falling, partial curve]",-21.7,–
COc1ccccc1OCC(=O)NC1CC(C)(C)NC(C)(C)C1,–,6.58,"0.103 µM [rising, full curve, poor fit]"
CC(C)(C)C(=O)NC(=S)Nc1sc2c(c1C(N)=O)CCC2,"0.00461 µM [rising, full curve, poor fit]",–,–

# Rewritten with bars between the fields: part of the list above
SMILES | AC50 [1] | cell number change [%] | AC50 [2]
O=C(CSc1nnc(-c2ccccc2)n1Cc1ccccc1)N1CCOCC1 | 3.26 µM [falling, full curve] | 18.4 | –
O=C(c1ccc(C(F)(F)F)cc1)C1CCCN(C(=O)CCc2ccncc2)C1 (stereo not given) | – | 16.5 | –
COCCN(C(=O)CCC(=O)Nc1nccs1)C(C(=O)NC(C)(C)C)c1ccc(C)cc1 (stereo not given) | 5.17 µM [rising, single point] | – | –
COc1ccc(CC(=O)NCC2CCCN(Cc3cc(OC)cc(OC)c3)C2)cc1 (stereo not given) | – | 21.3 | –
O=C(CSc1nnc(-c2ccco2)n1-c1ccccc1)NCCc1ccccc1 | 8.2 µM [rising, partial curve, poor fit] | -0.684 | –
CN(CCCC(=O)NCc1ccccc1)S(=O)(=O)c1ccc([N+](=O)[O-])cc1 | – | 1.76 | –
S=C(NCCc1ccccc1)NCc1ccccc1Cl | 18.4 µM [falling, partial curve] | -36.1 | 0.259 µM [falling, full curve, poor fit]
CCOc1ccc(/C=C2/Sc3ccc(C(=O)N4CCN(C(=O)c5ccco5)CC4)cc3N(C)C2=O)cc1OC | – | – | 0.82 µM [rising, single point]
CCc1c(C)sc(NC(=O)/C=C/C(=O)O)c1C(N)=O | – | -48.2 | 29.1 µM [falling, single point]
CCOc1ccccc1NC(=O)COC(=O)CC(NC(N)=O)c1ccc(Cl)cc1 (stereo not given) | 6.51 µM [falling, single point] | – | 6.51 µM [falling, single point]
CC(C(=O)N(C)c1ccccc1)N1CCN(C(=O)c2ccccc2)CC1 (stereo not given) | 0.58 µM [rising, single point] | -19.8 | –
O=C(C1CCCCC1)N1CCN(S(=O)(=O)c2ccc(Cl)cc2)CC1 | 6.51 µM [rising, single point] | 1.7 | –
COC(=O)c1c(NC(=O)CSc2nnnn2-c2ccccc2)sc2c1CCC(C)C2 (stereo not given) | 32.6 µM [falling, single point] | -22.4 | –
CC1/C(=N/O)C(CN(C)C)C2CC1C2(C)C (stereo not given) | – | -12.4 | –
COc1cc(C)c(NC(=O)C(=S)N2CCCC2)cc1C | – | 3.78 | –
Cn1c(CNc2cccc(Cl)c2)nnc1SCC(=O)OC1CCCCC1 | – | 19.8 | 0.206 µM [falling, full curve]
COc1ccc(-c2noc(-c3cccc(OC)c3OC)n2)cc1OC | 0.00461 µM [falling, full curve, poor fit] | -2.63 | –
CCOC(=O)c1cc(CC)sc1NC(=O)C1CC1 | 16.4 µM [rising, partial curve] | -15.2 | –
O=C1CN(C(=O)COC(=O)CNS(=O)(=O)c2ccccc2)c2ccccc2N1 | 8.2 µM [falling, partial curve] | -21.7 | –
CC(C)(C)C(=O)NC(=S)Nc1sc2c(c1C(N)=O)CCC2 | 0.00461 µM [rising, full curve, poor fit] | – | –

# Next part

SMILES,AC50 [1],cell number change [%],AC50 [2]
O=C(O)c1cccc(NC(=O)C2C3C=CC(C3)C2C(=O)OCC(F)(F)C(F)F)c1 (stereo not given),"29.1 µM [falling, single point]",-2.83,–
O=C(O)Cc1csc(-c2cccc(F)c2)n1,"1.64 µM [falling, partial curve, poor fit]",1.4,–
CCOC(=O)C1CCN(C(=O)c2cccc(S(=O)(=O)N3CCc4ccccc43)c2)CC1,–,15.1,"0.146 µM [falling, full curve, poor fit]"
Cc1cccc(C)c1OCCOC(=O)c1cccc(S(=O)(=O)N2CCOCC2)c1,"4.61 µM [falling, full curve, poor fit]",-22.5,–
N#Cc1cn(-c2ccccc2)nc1-c1cc2ccccc2oc1=O,–,-10.2,–
Cc1cccc(CCN2CCN=C2Nc2ccccc2)c1,"29.1 µM [rising, single point]",-21.7,–
Cc1ccc(S(=O)(=O)N2CCN(c3ccc(C(F)(F)F)cc3[N+](=O)[O-])CC2)cc1,–,-14.7,–
CCN(CC)C(=O)CSc1nc(COc2ccccc2)nc2ccccc12,–,-19,–
COc1ccc(OC)c(N(CC(=O)Nc2ccccc2)S(=O)(=O)c2ccccc2)c1,–,-23,–
O=C(O)c1cccc(S(=O)(=O)N2CCc3ccccc3C2)c1,–,-8.66,"4.11 µM [falling, single point]"
CN(Cc1cccs1)C(=O)CN1CCN(S(=O)(=O)c2ccc3c(c2)OCCCO3)CC1,"1.84 µM [rising, partial curve, poor fit]",-99.7,"23.1 µM [falling, single point]"
Cc1noc(C)c1S(=O)(=O)N1CCC(C(=O)N2CCN(c3ccc(Cl)cc3)CC2)CC1,–,-7.44,–
CNc1cnn(-c2ccccc2)c(=O)c1Cl,"5.17 µM [falling, full curve]",-18.2,–
CN(CC(=O)Nc1ccc2c(c1)OCO2)S(=O)(=O)c1ccc2c(c1)CCC(=O)N2,–,26,"2.31 µM [rising, full curve, poor fit]"
CCSCCC(NC1=CC(=O)CC(C)(C)C1)C(=O)O (stereo not given),"1.3 µM [falling, full curve, poor fit]",-10,–
COc1ccccc1NS(=O)(=O)c1cc([N+](=O)[O-])ccc1N/N=C/c1c(C)[nH]c2ccccc12,–,-19.4,–
CCC(C)N1CCN(C(=O)c2cc(OC)cc(OC)c2)CC1 (stereo not given),"4.11 µM [rising, partial curve, poor fit]",21.3,–
COc1cc(NC(=O)COc2cc(C)cc3oc(=O)c(C)c(C)c23)cc(OC)c1OC,"4.11 µM [falling, single point]",5.73,–
O=C(NNS(=O)(=O)c1ccc(F)cc1)c1ccc2c(c1)OCO2,"0.794 µM [falling, full curve, poor fit]",-18.2,"0.316 µM [falling, full curve]"
C[C@H](NC(=O)N1CCn2c1nc1ccccc12)C(=O)NC1CCCCC1,–,26.7,–
